This is an account of results in PubChem BioAssay AID318 (DTP/NCI, 2004).

The list shows only some results of the screen, not a fair sample: it gathers some chemical classes. Other doses and runs of a compound may be missing. T/C: endpoint of the treated group in % of that of the vehicle group. Some entries give survivors of the animals treated and no T/C: the source holds a T/C of zero for them, seemingly a mark for toxic or unscored doses. Some doses without a T/C left all or most animals alive at the check, yet need not have been tolerated: survival well below the control is almost never listed, so the zero probably covers shortened survival too. Survivors were counted at the toxicity check, usually on the fifth day, unless a day is given; later deaths do not show. Schedules are NCI's codes, read here as Q, the interval in days (D) or hours (H), X, the number of doses. Some doses were run more than once; the values are given in rising order. For survival time, the PubChem record calls one and a half times the control and up active, and a quarter to a half above the control has no call in these data; cut-offs in other NCI protocols can differ.

This test concerns BDF1 mice, P815 leukemia ip, survival T/C. In words: NCI In Vivo Anticancer Drug Screen. Data for tumor model P815 Mast Cell Leukemia (Ascitic) (intraperitoneal) in B6D2F1 (BDF1) mice. Conditions: T/C endpoint: survival time, mean or median, schedule: Q01DX010 (ip), vehicle: saline, higher T/C = longer survival. The protocol:
The antitumor activity of compounds was measured in mice bearing transplantable tumors. Survival or tumor size were measured and the results are expressed as the measurement made in the treated group (T) divided by the measurement made in the vehicle treated control group (C). The tumor model used in this assay is P815 Mast Cell Leukemia (Ascitic) (intraperitoneal) in B6D2F1 (BDF1) mice

In the case of `Cc1[nH]c(=O)[nH]c(=O)c1N(CCCl)CCCl`, the T/C by setting is: (dose: 0.5 mg/kg/injection) 105 and 112 % of control; (dose: 1.0 mg/kg/injection) 111 and 112 % of control; (dose: 2.0 mg/kg/injection) 105 and 137 % of control; (dose: 4.0 mg/kg/injection) 87 % of control. In addition, the survivor count (dose: 4.0 mg/kg/injection) is reported as 6 of 6.

With `CN(N=O)C(=N)N[N+](=O)[O-]`, the T/C reads like this: (dose: 8.0 mg/kg/injection) 154 and 163 % of control; (dose: 16.0 mg/kg/injection) 159 and 168 % of control; (dose: 32.0 mg/kg/injection) 90 and 95 % of control. Moreover, the survivor count (dose: 64.0 mg/kg/injection) was 4 of 6 and 6 of 6.

With `NC1CCCCC1.O=P(O)(N(CCCl)CCCl)N1CC1`, the T/C runs as follows: (dose: 1.25 mg/kg/injection) 90 % of control; (dose: 2.5 mg/kg/injection) 110 and 122 % of control; (dose: 5.0 mg/kg/injection) 122 and 140 % of control; (dose: 10.0 mg/kg/injection) 216 and 225 % of control; (dose: 20.0 mg/kg/injection) 205 % of control.
